Values of other authors in patent US20050226899A1, “Cosmetic mask composition” (priority 2004, published 2005).
For at least one compound, name, drawing or mass did not settle the structure.

System: skin
Conditions: lotion, up to 5% by weight retinoic acid

**Q.** Which anti-ageing activity does the source give for `CC1=C(/C=C/C(C)=C/C=C/C(C)=C/C(=O)O)C(C)(C)CCC1` [retinoic acid] here?
**A.** encouraging results
